Source: the supplement of paper PMC10849652
Some of the results follow.

Amino acid sequences for entries named in this document (tags omitted). A change or cut given only in a name is not applied to a line headed by its entry.
UniProt Q96P48: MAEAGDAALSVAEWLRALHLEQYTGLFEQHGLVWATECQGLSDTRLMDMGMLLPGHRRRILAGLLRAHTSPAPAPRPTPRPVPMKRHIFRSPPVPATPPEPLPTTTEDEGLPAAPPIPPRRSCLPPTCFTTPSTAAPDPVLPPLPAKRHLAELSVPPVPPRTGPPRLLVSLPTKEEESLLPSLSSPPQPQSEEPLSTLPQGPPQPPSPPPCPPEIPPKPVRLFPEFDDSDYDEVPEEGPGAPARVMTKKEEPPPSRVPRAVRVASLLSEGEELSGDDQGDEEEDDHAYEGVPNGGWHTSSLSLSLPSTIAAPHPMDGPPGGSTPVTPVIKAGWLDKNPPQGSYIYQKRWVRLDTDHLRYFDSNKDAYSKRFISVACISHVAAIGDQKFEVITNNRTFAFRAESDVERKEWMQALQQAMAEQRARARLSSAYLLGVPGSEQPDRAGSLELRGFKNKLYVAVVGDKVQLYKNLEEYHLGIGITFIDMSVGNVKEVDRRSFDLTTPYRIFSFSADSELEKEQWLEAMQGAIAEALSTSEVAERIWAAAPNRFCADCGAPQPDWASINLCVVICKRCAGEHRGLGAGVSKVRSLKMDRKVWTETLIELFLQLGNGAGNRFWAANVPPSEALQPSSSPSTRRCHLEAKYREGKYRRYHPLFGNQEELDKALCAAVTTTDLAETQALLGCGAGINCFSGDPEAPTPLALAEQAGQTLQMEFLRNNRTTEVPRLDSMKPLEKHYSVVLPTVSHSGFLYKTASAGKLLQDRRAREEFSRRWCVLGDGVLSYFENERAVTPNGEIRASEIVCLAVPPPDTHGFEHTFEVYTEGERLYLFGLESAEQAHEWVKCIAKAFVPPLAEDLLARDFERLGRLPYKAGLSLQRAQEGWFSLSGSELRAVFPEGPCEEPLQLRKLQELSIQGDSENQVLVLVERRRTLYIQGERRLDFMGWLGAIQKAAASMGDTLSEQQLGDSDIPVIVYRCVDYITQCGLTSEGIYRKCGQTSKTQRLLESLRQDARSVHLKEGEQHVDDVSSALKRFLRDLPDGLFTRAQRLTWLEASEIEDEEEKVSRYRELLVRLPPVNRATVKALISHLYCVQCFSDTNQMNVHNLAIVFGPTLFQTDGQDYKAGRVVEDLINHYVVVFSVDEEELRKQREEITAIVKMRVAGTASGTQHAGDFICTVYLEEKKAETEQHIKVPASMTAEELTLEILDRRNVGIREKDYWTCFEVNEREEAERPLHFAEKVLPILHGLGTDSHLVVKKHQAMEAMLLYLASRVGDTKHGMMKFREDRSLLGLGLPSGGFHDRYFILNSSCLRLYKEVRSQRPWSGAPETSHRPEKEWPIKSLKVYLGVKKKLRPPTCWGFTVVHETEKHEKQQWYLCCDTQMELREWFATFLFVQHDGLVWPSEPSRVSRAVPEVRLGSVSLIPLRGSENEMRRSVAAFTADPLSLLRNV
UniProt P08133: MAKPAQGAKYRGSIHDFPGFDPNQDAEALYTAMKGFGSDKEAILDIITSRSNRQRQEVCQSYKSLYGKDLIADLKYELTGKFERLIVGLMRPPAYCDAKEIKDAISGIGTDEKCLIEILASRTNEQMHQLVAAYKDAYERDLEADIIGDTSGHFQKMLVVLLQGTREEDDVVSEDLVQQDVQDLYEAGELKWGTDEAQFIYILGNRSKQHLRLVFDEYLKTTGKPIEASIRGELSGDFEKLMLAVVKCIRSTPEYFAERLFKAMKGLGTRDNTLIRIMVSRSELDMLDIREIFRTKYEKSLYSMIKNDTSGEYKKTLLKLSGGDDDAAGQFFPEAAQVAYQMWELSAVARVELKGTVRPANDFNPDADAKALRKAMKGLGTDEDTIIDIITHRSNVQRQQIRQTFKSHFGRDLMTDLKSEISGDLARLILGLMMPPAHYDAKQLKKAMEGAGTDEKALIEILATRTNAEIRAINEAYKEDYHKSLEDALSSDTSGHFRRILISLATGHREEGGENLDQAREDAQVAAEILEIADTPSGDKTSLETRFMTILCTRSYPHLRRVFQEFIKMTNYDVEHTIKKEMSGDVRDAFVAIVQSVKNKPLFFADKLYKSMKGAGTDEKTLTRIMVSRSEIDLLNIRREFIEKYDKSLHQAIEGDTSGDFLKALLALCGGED
UniProt Q9UKG1: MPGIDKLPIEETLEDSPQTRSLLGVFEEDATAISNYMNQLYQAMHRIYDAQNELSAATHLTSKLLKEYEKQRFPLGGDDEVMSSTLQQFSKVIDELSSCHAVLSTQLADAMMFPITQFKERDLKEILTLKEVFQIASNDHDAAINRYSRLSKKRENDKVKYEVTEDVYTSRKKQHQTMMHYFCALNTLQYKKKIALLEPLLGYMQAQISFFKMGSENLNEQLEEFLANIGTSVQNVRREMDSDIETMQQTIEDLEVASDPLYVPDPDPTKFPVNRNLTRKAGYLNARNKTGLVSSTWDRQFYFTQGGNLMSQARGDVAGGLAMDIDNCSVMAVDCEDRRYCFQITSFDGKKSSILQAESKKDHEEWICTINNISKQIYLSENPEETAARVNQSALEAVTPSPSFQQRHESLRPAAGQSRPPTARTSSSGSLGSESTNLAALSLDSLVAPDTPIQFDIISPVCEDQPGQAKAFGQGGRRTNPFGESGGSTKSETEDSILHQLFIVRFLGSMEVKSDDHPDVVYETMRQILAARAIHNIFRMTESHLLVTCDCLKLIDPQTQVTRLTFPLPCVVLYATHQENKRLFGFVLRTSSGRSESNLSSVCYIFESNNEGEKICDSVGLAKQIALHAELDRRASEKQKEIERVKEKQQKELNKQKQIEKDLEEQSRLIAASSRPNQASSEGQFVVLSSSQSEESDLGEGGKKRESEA
UniProt Q9NW15: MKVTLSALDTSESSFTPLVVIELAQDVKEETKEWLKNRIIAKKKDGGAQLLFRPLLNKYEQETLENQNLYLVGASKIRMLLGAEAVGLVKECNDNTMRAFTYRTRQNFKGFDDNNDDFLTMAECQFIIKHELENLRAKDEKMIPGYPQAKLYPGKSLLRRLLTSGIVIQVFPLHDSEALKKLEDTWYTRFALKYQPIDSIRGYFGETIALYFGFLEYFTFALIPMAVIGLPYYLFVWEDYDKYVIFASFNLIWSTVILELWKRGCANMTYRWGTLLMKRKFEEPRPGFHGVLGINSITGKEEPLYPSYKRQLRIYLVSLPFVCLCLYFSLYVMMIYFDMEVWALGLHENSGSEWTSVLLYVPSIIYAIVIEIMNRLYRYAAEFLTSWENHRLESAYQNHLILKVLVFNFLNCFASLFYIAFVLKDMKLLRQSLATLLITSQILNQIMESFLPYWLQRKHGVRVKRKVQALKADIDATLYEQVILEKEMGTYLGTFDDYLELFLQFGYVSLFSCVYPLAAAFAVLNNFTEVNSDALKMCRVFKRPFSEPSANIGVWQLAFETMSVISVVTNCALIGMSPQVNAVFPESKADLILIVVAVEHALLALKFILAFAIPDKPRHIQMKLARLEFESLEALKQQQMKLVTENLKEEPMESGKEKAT
UniProt Q92624: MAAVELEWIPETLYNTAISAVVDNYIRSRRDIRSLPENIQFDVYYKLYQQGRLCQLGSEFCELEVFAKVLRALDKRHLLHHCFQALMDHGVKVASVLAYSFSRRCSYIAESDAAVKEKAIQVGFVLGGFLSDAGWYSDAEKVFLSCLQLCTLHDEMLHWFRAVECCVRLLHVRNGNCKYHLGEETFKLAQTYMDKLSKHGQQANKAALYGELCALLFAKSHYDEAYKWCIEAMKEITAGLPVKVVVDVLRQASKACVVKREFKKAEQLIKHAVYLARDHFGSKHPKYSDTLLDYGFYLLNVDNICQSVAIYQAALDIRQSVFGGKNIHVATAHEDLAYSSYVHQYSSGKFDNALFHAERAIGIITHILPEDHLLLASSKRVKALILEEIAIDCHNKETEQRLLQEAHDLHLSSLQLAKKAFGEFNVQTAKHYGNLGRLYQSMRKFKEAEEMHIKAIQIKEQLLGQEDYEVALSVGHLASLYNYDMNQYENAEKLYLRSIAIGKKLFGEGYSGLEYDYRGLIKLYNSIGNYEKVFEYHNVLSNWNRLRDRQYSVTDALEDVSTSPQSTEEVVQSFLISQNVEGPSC
UniProt P53365: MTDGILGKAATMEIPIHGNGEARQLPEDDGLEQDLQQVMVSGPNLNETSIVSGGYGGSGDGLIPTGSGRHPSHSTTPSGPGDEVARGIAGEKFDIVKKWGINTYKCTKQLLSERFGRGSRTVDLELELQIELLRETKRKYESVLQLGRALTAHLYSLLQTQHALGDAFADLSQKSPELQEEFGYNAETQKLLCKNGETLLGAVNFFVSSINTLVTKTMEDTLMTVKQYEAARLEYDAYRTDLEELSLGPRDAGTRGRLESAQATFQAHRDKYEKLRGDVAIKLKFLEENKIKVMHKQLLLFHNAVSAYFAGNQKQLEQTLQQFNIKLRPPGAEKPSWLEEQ
UniProt Q9Y6B7: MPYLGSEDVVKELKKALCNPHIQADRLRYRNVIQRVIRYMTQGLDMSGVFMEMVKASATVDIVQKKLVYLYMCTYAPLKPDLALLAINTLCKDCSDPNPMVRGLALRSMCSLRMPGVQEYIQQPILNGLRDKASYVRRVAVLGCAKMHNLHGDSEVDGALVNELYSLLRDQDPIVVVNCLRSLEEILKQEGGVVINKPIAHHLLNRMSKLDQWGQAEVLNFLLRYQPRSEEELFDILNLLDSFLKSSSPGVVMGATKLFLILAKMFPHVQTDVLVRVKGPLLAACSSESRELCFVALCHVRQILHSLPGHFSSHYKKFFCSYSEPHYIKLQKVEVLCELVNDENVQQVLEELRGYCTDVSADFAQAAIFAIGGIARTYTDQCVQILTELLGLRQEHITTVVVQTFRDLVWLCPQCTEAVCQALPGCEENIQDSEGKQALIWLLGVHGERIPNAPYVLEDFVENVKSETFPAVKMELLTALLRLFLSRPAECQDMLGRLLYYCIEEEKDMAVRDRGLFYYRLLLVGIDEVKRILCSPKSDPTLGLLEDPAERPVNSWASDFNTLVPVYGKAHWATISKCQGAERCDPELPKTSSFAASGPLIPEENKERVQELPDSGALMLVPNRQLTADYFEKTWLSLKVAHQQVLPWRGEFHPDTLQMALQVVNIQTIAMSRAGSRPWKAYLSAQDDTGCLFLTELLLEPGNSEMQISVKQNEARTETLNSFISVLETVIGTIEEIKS
UniProt Q10567: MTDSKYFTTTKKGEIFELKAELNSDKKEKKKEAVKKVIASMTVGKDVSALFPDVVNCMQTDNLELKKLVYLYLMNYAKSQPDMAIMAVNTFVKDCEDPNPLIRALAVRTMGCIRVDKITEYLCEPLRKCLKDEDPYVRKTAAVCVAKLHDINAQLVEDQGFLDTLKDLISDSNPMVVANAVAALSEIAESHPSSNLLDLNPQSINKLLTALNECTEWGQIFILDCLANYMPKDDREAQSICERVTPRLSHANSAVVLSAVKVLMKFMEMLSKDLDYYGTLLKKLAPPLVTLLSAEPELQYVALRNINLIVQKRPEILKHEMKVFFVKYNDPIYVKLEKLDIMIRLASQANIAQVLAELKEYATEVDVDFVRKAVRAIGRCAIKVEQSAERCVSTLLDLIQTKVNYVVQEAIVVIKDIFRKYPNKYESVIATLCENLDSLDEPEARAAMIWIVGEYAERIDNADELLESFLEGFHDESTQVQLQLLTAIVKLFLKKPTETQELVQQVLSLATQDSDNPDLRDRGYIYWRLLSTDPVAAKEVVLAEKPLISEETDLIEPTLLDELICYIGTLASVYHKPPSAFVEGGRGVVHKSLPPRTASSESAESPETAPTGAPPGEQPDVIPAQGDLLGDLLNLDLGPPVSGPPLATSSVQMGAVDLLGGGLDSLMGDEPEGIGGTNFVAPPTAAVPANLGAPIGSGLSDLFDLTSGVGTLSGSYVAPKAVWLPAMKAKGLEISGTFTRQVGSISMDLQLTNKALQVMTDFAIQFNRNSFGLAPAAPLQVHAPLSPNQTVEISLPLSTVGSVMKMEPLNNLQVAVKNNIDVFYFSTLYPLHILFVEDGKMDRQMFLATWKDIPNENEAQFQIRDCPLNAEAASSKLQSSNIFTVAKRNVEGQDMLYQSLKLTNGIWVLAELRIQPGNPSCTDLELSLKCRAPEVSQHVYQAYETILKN
UniProt Q9Y2T2: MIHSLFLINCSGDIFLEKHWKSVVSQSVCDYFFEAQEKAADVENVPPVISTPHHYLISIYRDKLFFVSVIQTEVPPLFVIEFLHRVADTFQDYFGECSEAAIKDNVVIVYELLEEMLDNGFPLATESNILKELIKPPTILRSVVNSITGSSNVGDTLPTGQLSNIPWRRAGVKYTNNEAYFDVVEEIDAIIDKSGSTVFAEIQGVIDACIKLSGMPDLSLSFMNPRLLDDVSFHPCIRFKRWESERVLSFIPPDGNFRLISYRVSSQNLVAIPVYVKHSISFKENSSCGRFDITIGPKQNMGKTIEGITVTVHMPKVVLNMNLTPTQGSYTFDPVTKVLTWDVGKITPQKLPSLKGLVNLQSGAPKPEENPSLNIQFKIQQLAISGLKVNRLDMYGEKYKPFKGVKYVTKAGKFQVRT

Legend:
Test in all cases: log2 fold change, soluble protein after heating vs DMSO (PISA); higher = thermal stabilisation; K562 cells, 10 uM, 30 min; active = over 0.2 and 3.5 SD of the protein, either way, in both replicates (recomputed)
bafetinib = compound: Cc1ccc(NC(=O)c2ccc(CN3CC[C@H](N(C)C)C3)c(C(F)(F)F)c2)cc1Nc1nccc(-c2cncnc2)n1 [bafetinib]
Outline: (§1)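 K562 cells at 2×10^6 cells/mL were treated with 10 μM compound for 30 min. Aliquots were heated for 3 min across 48°C-58°C, pooled, and extracted in PBS with 0.5% NP-40 at 4°C; soluble protein was the supernatant after 21,000xg for 90 min. Soluble protein was quantified by TMTpro 16plex LC-MS/MS with channel sums equalised, and reported as log2 fold change in thermal stability against DMSO controls, with values from duplicates.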

[1] = compound: Cc1cccc(CC(=O)N2CCc3c2ccc(-c2cn(C)c4ncnc(N)c24)c3F)n1
Outline: as §1

nilotinib = compound: Cc1cn(-c2cc(NC(=O)c3ccc(C)c(Nc4nccc(-c5cccnc5)n4)c3)cc(C(F)(F)F)c2)cn1 [nilotinib]
Outline: as §1

[2] = compound: Cc1nc(Nc2n[nH]c3c2CN(C(=O)N[C@H](CN(C)C)c2ccccc2)C3(C)C)c2sccc2n1
Outline: as §1

dasatinib = compound: Cc1nc(Nc2ncc(C(=O)Nc3c(C)cccc3Cl)s2)cc(N2CCN(CCO)CC2)n1 [dasatinib]
Outline: as §1

[3] = compound: Cc1ncc(-c2ccnc(Nc3ccc(S(C)(=O)=O)cc3)n2)n1C(C)C
Outline: as §1

[4] = compound: Cn1cc(-c2ccc3c(c2)CCN3C(=O)Cc2cccc(C(F)(F)F)c2)c2c(N)ncnc21
Outline: as §1

[5] = compound: Cn1cc(-c2ccc3nnc(C(F)(F)c4ccc5ncccc5c4)n3n2)cn1
Outline: as §1

tipifarnib = compound: Cn1cncc1[C@@](N)(c1ccc(Cl)cc1)c1ccc2c(c1)c(-c1cccc(Cl)c1)cc(=O)n2C [tipifarnib]
Outline: as §1

mubritinib = compound: FC(F)(F)c1ccc(/C=C/c2nc(COc3ccc(CCCCn4ccnn4)cc3)co2)cc1 [mubritinib]
Outline: as §1

Measured: log2 fold change

ANP32B (UniProt Q92688)
inactive: bafetinib -0.019 | [1] 0.005 | nilotinib -0.022 | [2] -0.025 | dasatinib -0.005 | [3] -0.075 | [4] 0.004 | [5] 0.01 | tipifarnib -0.009 | mubritinib 0.006

ANK3 (UniProt Q12955)
inactive: bafetinib -0.244 | [1] -0.242 | nilotinib -0.092 | [2] 0.042 | dasatinib -0.018 | [3] -0.033 | [4] -0.011 | [5] 0.038 | tipifarnib 0.044 | mubritinib 0.041

ARAP1 (UniProt Q96P48)
inactive: bafetinib 0.356 | [1] 0.046 | nilotinib -0.02 | [2] -0.426 | dasatinib -0.146 | [3] -0.008 | [4] -0.219 | [5] -0.053 | tipifarnib 0.21 | mubritinib -0.126

Pulled one by one from above, 2 records:
ANP32B (UniProt Q92688)
inactive: bafetinib -0.019 | [1] 0.005 | nilotinib -0.022 | [2] -0.025 | dasatinib -0.005 | [3] -0.075 | [4] 0.004 | [5] 0.01 | tipifarnib -0.009 | mubritinib 0.006

ARAP1 (UniProt Q96P48)
inactive: bafetinib 0.356 | [1] 0.046 | nilotinib -0.02 | [2] -0.426 | dasatinib -0.146 | [3] -0.008 | [4] -0.219 | [5] -0.053 | tipifarnib 0.21 | mubritinib -0.126

Further results

ANXA6 (UniProt P08133)
inactive: bafetinib -0.041 | [1] -0.006 | nilotinib -0.002 | [2] -0.042 | dasatinib 0.038 | [3] -0.006 | [4] 0.026 | [5] 0 | tipifarnib -0.007 | mubritinib 0.034

ARFGEF1 (UniProt Q9Y6D6)
inactive: bafetinib 0.052 | [1] 0.006 | nilotinib -0.024 | [2] 0.014 | dasatinib -0.026 | [3] 0.008 | [4] 0.005 | [5] 0.047 | tipifarnib 0.009 | mubritinib -0.021

APPL1 (UniProt Q9UKG1)
inactive: bafetinib -0.013 | [1] -0.092 | nilotinib -0.046 | [2] 0.161 | dasatinib -0.003 | [3] 0.002 | [4] 0.03 | [5] -0.001 | tipifarnib -0.051 | mubritinib -0.029

ARHGAP12 (UniProt Q8IWW6)
inactive: bafetinib -0.074 | [1] 0.034 | nilotinib -0.041 | [2] -0.154 | dasatinib -0.079 | [3] -0.029 | [4] 0.032 | [5] 0.017 | tipifarnib 0.009 | mubritinib 0.117

ANO10 (UniProt Q9NW15)
inactive: bafetinib -0.048 | [1] 0.002 | nilotinib -0.047 | [2] 0.033 | dasatinib 0.036 | [3] -0.016 | [4] 0.025 | [5] 0.038 | tipifarnib 0.002 | mubritinib 0.016

ANKRD46 (UniProt Q86W74)
inactive: bafetinib -0.185 | [1] -0.147 | nilotinib 0.231 | [2] -0.086 | dasatinib -0.019 | [3] 0.297 | [4] 0.104 | [5] -0.105 | tipifarnib 0.064 | mubritinib 0.185

ANXA4 (UniProt P09525)
inactive: bafetinib -0.023 | [1] 0.06 | nilotinib 0.023 | [2] -0.045 | dasatinib -0.041 | [3] 0.044 | [4] 0.011 | [5] 0.081 | tipifarnib -0.034 | mubritinib 0.019

ANXA3 (UniProt P12429)
inactive: bafetinib -0.051 | [1] 0.027 | nilotinib -0.045 | [2] -0.018 | dasatinib -0.044 | [3] 0.02 | [4] 0.067 | [5] 0.023 | tipifarnib -0.011 | mubritinib 0.015

ANAPC7 (UniProt Q9UJX3)
inactive: bafetinib 0.028 | [1] 0.056 | nilotinib -0.025 | [2] -0.011 | dasatinib -0.066 | [3] -0.052 | [4] -0.002 | [5] -0.056 | tipifarnib 0.006 | mubritinib -0.04

APPBP2 (UniProt Q92624)
inactive: bafetinib -0.089 | [1] -0.042 | nilotinib -0.132 | [2] 0.019 | dasatinib -0.078 | [3] 0.04 | [4] -0.063 | [5] -0.102 | tipifarnib -0.174

APOE (UniProt P02649)
inactive: bafetinib 0.048 | [1] -0.019 | nilotinib 0.185 | [2] -0.014 | dasatinib 0.011 | [3] 0.026 | [4] 0.191 | [5] 0.062 | tipifarnib 0.049 | mubritinib -0.063

ARFIP2 (UniProt P53365)
inactive: bafetinib -0.171 | [1] 0.17 | nilotinib -0.197 | [2] -0.092 | dasatinib -0.284 | [3] 0.009 | [4] 0.06 | [5] 0.029 | tipifarnib -0.084 | mubritinib 0.027

AP3B1 (UniProt O00203)
inactive: bafetinib 0.007 | [1] 0.054 | nilotinib -0.045 | [2] -0.029 | dasatinib -0.095 | [3] 0.015 | [4] 0.005 | [5] -0.019 | tipifarnib -0.064 | mubritinib 0.06

AP4B1 (UniProt Q9Y6B7)
inactive: bafetinib -0.043 | [1] 0.085 | nilotinib 0.149 | [2] -0.04 | dasatinib -0.017 | [3] 0.096 | [4] -0.047

ANAPC5 (UniProt Q9UJX4)
inactive: bafetinib 0.058 | [1] 0.028 | nilotinib -0.022 | [2] 0.005 | dasatinib 0.002 | [3] -0.046 | [4] -0.029 | [5] -0.068 | tipifarnib 0.025 | mubritinib -0.011

AP5M1 (UniProt Q9H0R1)
inactive: bafetinib 0.083 | [1] -0.033 | nilotinib 0.024 | [2] -0.002 | dasatinib -0.002 | [3] 0.007 | [4] -0.106 | [5] 0.114 | tipifarnib -0.009 | mubritinib -0.473

ANK2 (UniProt Q01484)
inactive: bafetinib -0.281 | [1] -0.034 | nilotinib -0.265 | [2] 0.041 | dasatinib -0.277 | [3] -0.042 | [4] 0.012 | [5] 0.01 | tipifarnib 0.034 | mubritinib -0.141

AP1B1 (UniProt Q10567)
inactive: bafetinib 0.004 | [1] 0.004 | nilotinib -0.024 | [2] -0.015 | dasatinib -0.015 | [3] -0.006 | [4] -0.005 | [5] 0.01 | tipifarnib 0 | mubritinib 0.011

ANO6 isoform 2 (UniProt Q4KMQ2)
inactive: bafetinib 0.003 | [1] 0.014 | nilotinib 0.013 | [2] -0.048 | dasatinib 0.006 | [3] 0.009 | [4] 0.055 | [5] 0.009 | tipifarnib 0.002 | mubritinib 0.039

APLP2 (UniProt Q06481)
inactive: bafetinib 0.054 | [1] -0.063 | nilotinib 0.156 | [2] -0.144 | dasatinib 0.118 | [3] 0.052 | [4] -0.007 | [5] -0.164 | tipifarnib -0.01 | mubritinib -0.011

ANKRD28 (UniProt O15084)
inactive: bafetinib -0.029 | [1] 0.017 | nilotinib -0.022 | [2] -0.076 | dasatinib -0.045 | [3] -0.011 | [4] -0.002 | [5] -0.072 | tipifarnib 0.004 | mubritinib 0.019

AP3M1 (UniProt Q9Y2T2)
inactive: bafetinib 0.031 | [1] 0.076 | nilotinib -0.079 | [2] -0.037 | dasatinib -0.046 | [3] -0.025 | [4] 0.01 | [5] -0.006 | tipifarnib -0.037 | mubritinib 0.027

ARHGEF18 (UniProt Q6ZSZ5)
inactive: bafetinib 0.132 | [1] -0.16 | nilotinib -0.373 | [2] 0.181 | dasatinib 0.057 | [3] -0.163 | [4] -0.124 | [5] -0.039 | tipifarnib 0.034 | mubritinib -0.213

ARF4 (UniProt P18085)
inactive: bafetinib 0.113 | [1] 0.01 | nilotinib -0.056 | [2] 0.015 | dasatinib -0.053 | [3] 0.088 | [4] 0.052 | [5] 0.038 | tipifarnib -0.061 | mubritinib 0.02

APEX1 (UniProt P27695)
inactive: bafetinib 0.016 | [1] 0.029 | nilotinib -0.017 | [2] 0.056 | dasatinib -0.038 | [3] -0.019 | [4] 0.044 | [5] 0.064 | tipifarnib -0.066 | mubritinib 0.081
